Source: PubChem BioAssay AID2417 (National Center for Advancing Translational Sciences (NCATS), 2010)
The campaign covered roughly 140,000 compounds. About 4,300 (3.1%) were called active. The shares of active, inactive and inconclusive entries below differ from those in the screen.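 How the source made its calls: active means readout at or below -70, meaning at least 70% loss of cells showing the perinucleolar compartment, a nuclear body marking cancer cells; inconclusive means readout between -30 and a set limit; inactive means the rest.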

Assay: High Content Assay for Compounds that inhibit the Assembly of the Perinucleolar Compartment;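 further: plate controls were DMSO wells for no effect and camptothecin positive control wells for full effect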
Conditions: PC3M PTB-GFP, PNC prevalence imaging, 16 h; at 10 µM; stronger effect = lower value
Procedure, shortened: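 PC3M cells stably expressing PTB-GFP, 750–1000 cells/well, treated 16 h at 37 °C with compound (23 nl of library stock), in duplicate. After paraformaldehyde fixation and Hoechst stain, imaged at 20x; PNC prevalence scored by image analysis.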

Row | Structure (SMILES) | activity change (PNC), negative = inhibition
1 | Cc1ccccc1C(=O)N/N=C/c1ccsc1C | inactive: 69.4%
2 | CCOC(=O)N1CCC(NC(=O)c2ccc3c(c2)N(Cc2ccccc2)CCS3)CC1 | inconclusive: -32.2%
3 | O=C(O)C1CC=CCC1C(=O)Nc1ccc(S(=O)(=O)N2CCCc3ccccc32)cc1 (stereo not given) | inactive: 9.45%
4 | CNC(=O)C1CC(=O)N(CCCc2ccccc2)C(=Nc2ccccc2)S1 (stereo not given) | inconclusive: -60.9%
5 | CC1(C)C(c2ccccn2)=[N+]([O-])C(C)(C)N1O | inconclusive: -41.7%
6 | Cc1cccc(NC(=S)NCc2cccs2)c1C | inconclusive: -30.3%
7 | CC(=O)O[C@H]1C[C@@]2(C)[C@@H](C[C@@H](O)[C@H]3[C@@]4(C)CC[C@@H](O)[C@@H](C)C4CC[C@@]32C)/C1=C(\CCC=C(C)C)C(=O)O (stereo not given in full) | inconclusive: -50%
8 | CCn1c(CS(=O)Cc2ccc(Cl)cc2Cl)nnc1SCc1c(Cl)cccc1Cl (stereo not given) | inconclusive: -35.9%
9 | NC(=O)CN1C(=O)C2C3c4ccccc4C(c4ccccc43)C2C1=O (stereo not given) | inconclusive: -49%
10 | Clc1ccc(C2=NNC(=NCc3ccc4c(c3)OCO4)SC2)cc1 | inconclusive: -65.7%
11 | O=C1Nc2ncccc2OC1CCCl (stereo not given) | inconclusive: -58.3%
12 | COc1cccc(NC(=O)CCCn2c(=S)[nH]c3ccccc3c2=O)c1 | inconclusive: -58.4%
13 | O=C(O)c1ccc2oc(SCC(=O)N3CCCCC3)nc2c1 | inactive: 0.184%
14 | O=c1c2ccccc2nc(-c2ccco2)n1/N=C/c1ccccc1O | inconclusive: -64.8%
15 | N#CCCNc1ccc(OCCC#N)cc1 | inconclusive: -45.1%
16 | COc1ccc(-c2nnc(SCCC(=O)O)n2-c2ccccc2)cc1 | inactive: -2.05%
17 | CCOC(=O)N1CCN(S(=O)(=O)c2ccc(F)c(C(=O)Nc3cccc(Cl)c3C)c2)CC1 | inconclusive: -36.2%
18 | CCN(CC)c1ccc(/C=C2/C(=O)N(c3ccc([N+](=O)[O-])cc3)N=C2N2CCOCC2)cc1 | inconclusive: -59.1%
19 | CCCCNc1c(N)n(CCCC)c(=O)[nH]c1=O | inconclusive: -55.8%
20 | Cc1ccccc1NC(=S)N(CCCN1CCOCC1)Cc1ccccn1 | inconclusive: -41.6%
21 | COC(=O)c1ccccc1OCCCN(C)C | inconclusive: -50.2%
22 | O=C(O)CCc1ccc(-c2ccc(Br)cc2)o1 | inconclusive: -40.3%
23 | COc1ccc(-c2noc(CN3CCC(Cc4ccccc4)CC3)n2)cc1 | inconclusive: -66.8%

Pulled one by one from the entries so far, four records:
Row | Structure (SMILES) | activity change (PNC), negative = inhibition
22 | O=C(O)CCc1ccc(-c2ccc(Br)cc2)o1 | inconclusive: -40.3%
1 | Cc1ccccc1C(=O)N/N=C/c1ccsc1C | inactive: 69.4%
23 | COc1ccc(-c2noc(CN3CCC(Cc4ccccc4)CC3)n2)cc1 | inconclusive: -66.8%
8 | CCn1c(CS(=O)Cc2ccc(Cl)cc2Cl)nnc1SCc1c(Cl)cccc1Cl (stereo not given) | inconclusive: -35.9%

The listing continues:

Row | Structure (SMILES) | activity change (PNC), negative = inhibition
24 | O=C(Nc1ccccc1)c1cc(Cl)nc2ccccc12 | active: -100%
25 | Cc1oc(-c2ccccc2F)nc1CS(=O)(=O)CC(=O)N1CCc2ccccc21 | inconclusive: -46.8%
26 | COc1ccc(C(=O)COC(=O)C(CCSC)NS(=O)(=O)c2ccc(Cl)cc2)cc1 (stereo not given) | inconclusive: -54.4%
27 | COc1ccc(C)cc1NC(=O)c1cc2c(s1)CCC2 | inactive: 2.08%
28 | COc1ccc(-c2n[nH]c(=S)n2-c2ccc3c(c2)OCCO3)cc1 | inactive: -10.7%
29 | C=CCNC(=O)c1c2c(nc3ccccc13)-c1ccccc1CC2 | inconclusive: -40.6%
30 | CN1C/C(=C\c2ccc(N3CCOCC3)cc2)C(=O)/C(=C/c2ccc(N3CCOCC3)cc2)C1 | inactive: -5.65%
31 | COc1cc(-c2cc(C(=O)Nc3c(Cl)cc(Cl)cc3Cl)c3ccccc3n2)cc(OC)c1OC | inconclusive: -72.5%
32 | O=C(CCN1CCc2ccccc2C1)Nc1cccc(F)c1 | inconclusive: -60.2%
33 | CC(NC(=O)OCc1ccccc1)C(=O)Oc1cc2oc(=O)cc(-c3ccccc3)c2cc1Cl (stereo not given) | inactive: 32.6%
34 | CCOc1ccccc1NC(=O)CN(c1ccc(OC)cc1)S(=O)(=O)c1c(C)noc1C | active: -97.3%
35 | COC(=O)c1ccc2nc(NC(=O)CN3C(=O)CCC3=O)sc2c1 | inconclusive: -30.5%
36 | CC1(C(=O)CSc2nc3ccccc3s2)CCC(=O)O1 (stereo not given) | inactive: 40.7%
37 | Cc1ccccc1N1CCN(C2=NC(=O)/C(=C/c3cn[nH]c3-c3ccccc3)S2)CC1 | inactive: -5.04%
38 | CCCCCCCCCCn1c2c(c(=N)c3c1CCC3)CCC2 | inactive: 0.804%
39 | CC(C)(C)NC(=O)CN(C(=O)C1(C)CC(=O)N=C2C=CC=CN21)C1CCCC1 (stereo not given) | inactive: -9.89%
40 | Cc1ccc(NC(=O)COC(=O)c2cc(Cl)ccc2[N+](=O)[O-])c(C)c1 | inconclusive: -69.6%
41 | COc1cccc(OCCn2c(C)c(/C=N/n3cnnc3)c3ccccc32)c1 | inconclusive: -32.9%
42 | CCOC(=O)CC(=O)Nc1ccc(C)cc1 | inconclusive: -41.9%
43 | CC(C)C(=O)c1cn(CC(=O)NCc2ccco2)c2ccccc12 | active: -100%
44 | COC(=O)c1ccccc1NC(=S)NC(=O)c1cccc2ccccc12 | inactive: -1.43%
45 | CCCCn1c(-c2ccncc2)nc2c1c(=O)[nH]c(=O)n2CC(C)C | inconclusive: -49.7%
